{"sequences": {"note": "Chains of the proteins cited; added tags and fusions are not shown. Lines headed by an entry give the natural chain unless they say otherwise; changes in a name come on top.", "UniProt Q9H257": "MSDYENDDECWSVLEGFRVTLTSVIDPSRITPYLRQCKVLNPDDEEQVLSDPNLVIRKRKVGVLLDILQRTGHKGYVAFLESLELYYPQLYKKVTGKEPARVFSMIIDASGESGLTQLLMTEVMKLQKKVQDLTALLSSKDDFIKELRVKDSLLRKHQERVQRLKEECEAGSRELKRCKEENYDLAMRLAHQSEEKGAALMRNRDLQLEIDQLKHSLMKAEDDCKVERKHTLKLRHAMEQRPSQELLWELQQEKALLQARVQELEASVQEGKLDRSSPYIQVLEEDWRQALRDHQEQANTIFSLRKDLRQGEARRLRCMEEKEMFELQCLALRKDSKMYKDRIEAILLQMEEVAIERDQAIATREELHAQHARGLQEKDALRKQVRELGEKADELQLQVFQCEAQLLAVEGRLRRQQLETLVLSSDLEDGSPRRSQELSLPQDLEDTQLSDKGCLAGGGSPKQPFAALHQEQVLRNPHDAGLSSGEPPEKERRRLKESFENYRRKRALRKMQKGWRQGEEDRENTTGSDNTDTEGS", "UniProt Q96LW7": "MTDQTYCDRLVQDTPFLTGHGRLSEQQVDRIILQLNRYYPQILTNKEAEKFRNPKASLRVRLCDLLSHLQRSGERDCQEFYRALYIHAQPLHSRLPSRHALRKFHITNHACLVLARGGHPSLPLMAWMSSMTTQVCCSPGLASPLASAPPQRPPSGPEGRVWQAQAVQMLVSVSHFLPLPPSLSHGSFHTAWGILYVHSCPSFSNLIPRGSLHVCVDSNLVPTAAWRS", "UniProt P04040": "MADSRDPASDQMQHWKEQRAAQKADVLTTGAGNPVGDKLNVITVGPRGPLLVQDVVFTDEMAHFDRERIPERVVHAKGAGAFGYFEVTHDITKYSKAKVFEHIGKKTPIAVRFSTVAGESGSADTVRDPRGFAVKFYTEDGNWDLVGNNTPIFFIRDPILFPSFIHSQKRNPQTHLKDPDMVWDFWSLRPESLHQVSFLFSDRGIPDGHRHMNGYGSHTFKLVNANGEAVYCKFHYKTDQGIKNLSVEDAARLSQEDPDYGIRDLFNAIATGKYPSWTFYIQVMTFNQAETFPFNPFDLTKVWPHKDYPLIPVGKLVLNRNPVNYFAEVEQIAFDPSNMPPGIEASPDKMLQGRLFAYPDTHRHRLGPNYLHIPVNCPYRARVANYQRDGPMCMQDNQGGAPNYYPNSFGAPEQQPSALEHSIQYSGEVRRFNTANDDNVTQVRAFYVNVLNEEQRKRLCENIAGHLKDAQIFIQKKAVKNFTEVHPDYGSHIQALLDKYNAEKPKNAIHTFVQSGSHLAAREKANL", "UniProt P78371": "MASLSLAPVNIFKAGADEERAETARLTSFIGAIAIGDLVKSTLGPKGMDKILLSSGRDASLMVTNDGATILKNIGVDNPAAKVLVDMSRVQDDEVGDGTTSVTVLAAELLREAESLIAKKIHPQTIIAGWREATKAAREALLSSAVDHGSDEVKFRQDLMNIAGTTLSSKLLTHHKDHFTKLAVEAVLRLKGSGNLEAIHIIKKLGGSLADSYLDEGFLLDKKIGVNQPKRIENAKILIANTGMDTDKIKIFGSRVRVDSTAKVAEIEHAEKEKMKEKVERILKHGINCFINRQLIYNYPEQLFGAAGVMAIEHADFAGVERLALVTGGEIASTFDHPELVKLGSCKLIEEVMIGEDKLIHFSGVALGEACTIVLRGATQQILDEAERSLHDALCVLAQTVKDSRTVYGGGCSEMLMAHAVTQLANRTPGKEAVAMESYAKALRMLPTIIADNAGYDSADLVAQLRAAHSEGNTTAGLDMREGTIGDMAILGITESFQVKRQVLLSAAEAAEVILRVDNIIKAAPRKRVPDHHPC", "UniProt P49662": "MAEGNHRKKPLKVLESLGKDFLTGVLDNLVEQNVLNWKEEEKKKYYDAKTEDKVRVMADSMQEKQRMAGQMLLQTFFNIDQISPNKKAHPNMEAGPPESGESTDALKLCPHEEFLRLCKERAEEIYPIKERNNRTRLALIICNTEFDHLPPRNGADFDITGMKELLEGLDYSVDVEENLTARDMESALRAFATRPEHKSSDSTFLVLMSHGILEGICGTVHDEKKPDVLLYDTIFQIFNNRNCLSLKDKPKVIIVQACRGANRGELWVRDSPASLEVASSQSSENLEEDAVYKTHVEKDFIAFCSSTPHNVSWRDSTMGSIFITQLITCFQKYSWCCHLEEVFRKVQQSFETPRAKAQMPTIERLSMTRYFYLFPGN", "UniProt Q9Y6W3": "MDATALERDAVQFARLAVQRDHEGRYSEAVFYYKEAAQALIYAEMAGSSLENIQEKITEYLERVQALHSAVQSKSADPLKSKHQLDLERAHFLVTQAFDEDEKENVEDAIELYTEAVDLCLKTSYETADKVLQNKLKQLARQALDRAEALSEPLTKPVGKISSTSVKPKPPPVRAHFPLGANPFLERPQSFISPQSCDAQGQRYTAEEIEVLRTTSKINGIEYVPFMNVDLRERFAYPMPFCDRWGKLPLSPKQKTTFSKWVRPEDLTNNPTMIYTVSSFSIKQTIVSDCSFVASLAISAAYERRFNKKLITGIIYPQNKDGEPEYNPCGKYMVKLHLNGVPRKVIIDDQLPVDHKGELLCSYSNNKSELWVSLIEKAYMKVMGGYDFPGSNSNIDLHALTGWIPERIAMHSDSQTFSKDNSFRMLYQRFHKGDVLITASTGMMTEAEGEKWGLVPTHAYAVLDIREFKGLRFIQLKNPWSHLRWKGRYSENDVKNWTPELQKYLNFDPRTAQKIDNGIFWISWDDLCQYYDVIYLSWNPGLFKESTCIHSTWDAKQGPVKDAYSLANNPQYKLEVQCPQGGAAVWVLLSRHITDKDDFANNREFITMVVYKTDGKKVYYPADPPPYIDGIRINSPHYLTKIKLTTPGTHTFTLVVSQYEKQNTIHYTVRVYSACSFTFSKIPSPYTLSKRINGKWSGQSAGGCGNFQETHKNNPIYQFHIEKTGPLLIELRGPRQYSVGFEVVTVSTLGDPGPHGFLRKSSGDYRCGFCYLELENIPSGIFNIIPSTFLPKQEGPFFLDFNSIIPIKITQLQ", "UniProt Q5T0F9": "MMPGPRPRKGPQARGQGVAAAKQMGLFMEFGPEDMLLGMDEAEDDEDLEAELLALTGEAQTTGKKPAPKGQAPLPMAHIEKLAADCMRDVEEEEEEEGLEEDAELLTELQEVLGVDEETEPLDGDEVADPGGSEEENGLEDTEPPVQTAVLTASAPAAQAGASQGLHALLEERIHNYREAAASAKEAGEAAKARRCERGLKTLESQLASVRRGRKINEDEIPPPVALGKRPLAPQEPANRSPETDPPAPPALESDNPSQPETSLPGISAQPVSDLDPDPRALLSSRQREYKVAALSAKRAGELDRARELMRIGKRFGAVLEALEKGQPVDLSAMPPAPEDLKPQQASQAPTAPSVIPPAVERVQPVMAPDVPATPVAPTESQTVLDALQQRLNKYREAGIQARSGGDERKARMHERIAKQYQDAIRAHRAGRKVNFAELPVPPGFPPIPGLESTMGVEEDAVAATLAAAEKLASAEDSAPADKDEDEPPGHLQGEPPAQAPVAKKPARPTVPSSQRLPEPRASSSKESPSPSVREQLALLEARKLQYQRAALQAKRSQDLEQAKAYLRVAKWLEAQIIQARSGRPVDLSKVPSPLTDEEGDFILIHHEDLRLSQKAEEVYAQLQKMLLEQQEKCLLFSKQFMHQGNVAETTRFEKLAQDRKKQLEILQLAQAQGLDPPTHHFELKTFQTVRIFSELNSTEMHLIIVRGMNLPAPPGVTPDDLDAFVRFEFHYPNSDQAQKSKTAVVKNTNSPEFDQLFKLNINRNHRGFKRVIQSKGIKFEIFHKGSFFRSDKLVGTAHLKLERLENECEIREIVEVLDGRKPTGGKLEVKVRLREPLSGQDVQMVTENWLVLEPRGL", "UniProt P49589": "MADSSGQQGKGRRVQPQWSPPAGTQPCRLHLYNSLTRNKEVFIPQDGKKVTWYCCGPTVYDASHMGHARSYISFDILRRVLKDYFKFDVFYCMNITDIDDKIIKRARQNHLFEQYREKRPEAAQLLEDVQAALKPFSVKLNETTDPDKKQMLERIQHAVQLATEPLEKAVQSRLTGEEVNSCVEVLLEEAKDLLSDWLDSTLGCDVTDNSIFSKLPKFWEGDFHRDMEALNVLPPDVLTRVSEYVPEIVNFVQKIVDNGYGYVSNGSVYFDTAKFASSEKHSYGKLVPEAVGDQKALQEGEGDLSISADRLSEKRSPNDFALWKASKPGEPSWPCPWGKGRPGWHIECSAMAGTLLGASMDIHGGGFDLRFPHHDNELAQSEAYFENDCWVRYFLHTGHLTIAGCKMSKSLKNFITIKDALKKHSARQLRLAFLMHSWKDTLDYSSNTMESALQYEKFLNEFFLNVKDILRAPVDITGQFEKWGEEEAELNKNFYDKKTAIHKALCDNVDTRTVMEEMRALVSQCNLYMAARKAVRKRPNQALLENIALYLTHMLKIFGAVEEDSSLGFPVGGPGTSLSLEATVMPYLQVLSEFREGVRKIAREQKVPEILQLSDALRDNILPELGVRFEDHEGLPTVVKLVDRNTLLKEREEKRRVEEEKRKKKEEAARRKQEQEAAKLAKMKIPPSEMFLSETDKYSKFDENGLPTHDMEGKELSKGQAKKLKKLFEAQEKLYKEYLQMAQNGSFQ", "UniProt Q4VC31": "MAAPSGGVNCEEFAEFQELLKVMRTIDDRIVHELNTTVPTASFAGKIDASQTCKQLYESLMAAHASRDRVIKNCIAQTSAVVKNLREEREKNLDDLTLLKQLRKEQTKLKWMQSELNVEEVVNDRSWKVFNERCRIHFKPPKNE", "UniProt Q8IX12": "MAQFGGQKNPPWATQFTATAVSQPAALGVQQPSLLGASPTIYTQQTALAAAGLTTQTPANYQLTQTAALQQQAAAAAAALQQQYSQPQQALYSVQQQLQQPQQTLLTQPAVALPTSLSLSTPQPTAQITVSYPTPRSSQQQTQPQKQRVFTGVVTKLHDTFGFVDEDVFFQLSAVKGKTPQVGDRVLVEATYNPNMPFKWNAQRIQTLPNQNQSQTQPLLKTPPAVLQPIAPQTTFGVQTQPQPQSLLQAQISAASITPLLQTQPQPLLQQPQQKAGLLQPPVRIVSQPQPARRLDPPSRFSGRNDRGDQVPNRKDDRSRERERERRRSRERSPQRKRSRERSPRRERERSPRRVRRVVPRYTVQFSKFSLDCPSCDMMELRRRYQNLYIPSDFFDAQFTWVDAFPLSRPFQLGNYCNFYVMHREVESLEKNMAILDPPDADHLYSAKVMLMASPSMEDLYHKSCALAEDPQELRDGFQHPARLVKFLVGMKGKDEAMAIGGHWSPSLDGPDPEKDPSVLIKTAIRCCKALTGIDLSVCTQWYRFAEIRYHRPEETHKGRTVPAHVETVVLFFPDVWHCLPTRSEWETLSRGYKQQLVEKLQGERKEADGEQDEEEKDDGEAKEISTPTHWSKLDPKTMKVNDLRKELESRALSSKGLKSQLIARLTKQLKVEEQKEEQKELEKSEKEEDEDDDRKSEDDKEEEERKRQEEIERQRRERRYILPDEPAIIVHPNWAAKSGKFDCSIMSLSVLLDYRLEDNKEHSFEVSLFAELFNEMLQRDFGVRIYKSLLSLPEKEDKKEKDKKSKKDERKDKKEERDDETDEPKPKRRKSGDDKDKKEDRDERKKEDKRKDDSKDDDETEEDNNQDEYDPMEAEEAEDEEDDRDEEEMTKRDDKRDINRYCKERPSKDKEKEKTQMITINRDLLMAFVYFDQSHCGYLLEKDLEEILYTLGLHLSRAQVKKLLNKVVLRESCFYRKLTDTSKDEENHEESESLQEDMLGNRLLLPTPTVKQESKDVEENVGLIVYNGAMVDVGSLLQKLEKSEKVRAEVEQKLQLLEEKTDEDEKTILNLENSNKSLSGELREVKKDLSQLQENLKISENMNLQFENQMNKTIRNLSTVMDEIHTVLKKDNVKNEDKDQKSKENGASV", "UniProt Q96ER9": "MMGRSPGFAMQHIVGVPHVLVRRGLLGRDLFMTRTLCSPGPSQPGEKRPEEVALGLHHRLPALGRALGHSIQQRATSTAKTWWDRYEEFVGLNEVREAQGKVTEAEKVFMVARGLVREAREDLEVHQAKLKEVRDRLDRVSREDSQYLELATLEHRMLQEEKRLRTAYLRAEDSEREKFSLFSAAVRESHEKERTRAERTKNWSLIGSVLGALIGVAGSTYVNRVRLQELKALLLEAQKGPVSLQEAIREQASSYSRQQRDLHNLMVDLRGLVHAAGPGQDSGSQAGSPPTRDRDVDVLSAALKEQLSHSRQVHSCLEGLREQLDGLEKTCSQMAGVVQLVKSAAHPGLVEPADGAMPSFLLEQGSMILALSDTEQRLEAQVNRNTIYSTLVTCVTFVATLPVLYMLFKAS", "UniProt Q96NT0": "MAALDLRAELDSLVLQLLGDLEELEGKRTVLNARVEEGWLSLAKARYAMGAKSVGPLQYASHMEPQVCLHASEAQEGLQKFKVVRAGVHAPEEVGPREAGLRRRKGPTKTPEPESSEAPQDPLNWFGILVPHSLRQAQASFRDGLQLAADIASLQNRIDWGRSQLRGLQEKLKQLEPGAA"}, "source": "the supplement of paper PMC12067093", "about": "“Discovery and optimisation of a covalent ligand for TRIM25 and its application to targeted protein ubiquitination” (Chemical Science, 2025)", "note": "Some of the results follow.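 Also: competitive profiling in live THP-1 cells: cysteine peptides tagged with an iodoacetamide desthiobiotin (IA-DTB) probe, intensity after compound treatment relative to DMSO-treated cells.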", "data": [{"compound": "Cc1cc(ccc1-c1ccccc1)C(=O)N1CCCN(CC1)C(=O)CCl [compound 10]", "assay": "probe-labelled cysteine peptide fold change vs DMSO (competition) (log2 fold change); higher = less target engagement (more negative = stronger competition)", "details": "10 µM; THP-1; incubation time: 4 h", "values": [{"target": "CARD9_Q9H257_329_EMFELQCLALR (UniProt Q9H257)", "probe-labelled cysteine peptide fold change": 0.00595}, {"target": "CARD19_Q96LW7_63_LCDLLSHLQR (UniProt Q96LW7)", "probe-labelled cysteine peptide fold change": 0.0672}, {"target": "CAT_P04040_460_RLCENIAGHLK (UniProt P04040)", "probe-labelled cysteine peptide fold change": 0.0989}, {"target": "CCT2_P78371_371_LIHFSGVALGEACTIVLR (UniProt P78371)", "probe-labelled cysteine peptide fold change": 0.267}, {"target": "CASP4_P49662_217_SSDSTFLVLMSHGILEGICGTVHDEK (UniProt P49662)", "probe-labelled cysteine peptide fold change": 0.193}, {"target": "CAPN7_Q9Y6W3_242_FAYPMPFCDR (UniProt Q9Y6W3)", "probe-labelled cysteine peptide fold change": -0.0997}, {"target": "CCT5_P48643_429+440_VVYGGGAAEISCALAVSQEADKCPTLEQYAMR (UniProt P48643)", "probe-labelled cysteine peptide fold change": -0.277}, {"target": "CC2D1B_Q5T0F9_809_LENECEIR (UniProt Q5T0F9)", "probe-labelled cysteine peptide fold change": -0.0993}, {"target": "CCT5_P48643_302_ETGANLAICQWGFDDEANHLLLQNNLPAVR (UniProt P48643)", "probe-labelled cysteine peptide fold change": -0.0363}, {"target": "CARS_P49589_182_LTGEEVNSCVEVLLEEAK (UniProt P49589)", "probe-labelled cysteine peptide fold change": -0.181}, {"target": "CAPZB_P47756_8_SDQQLDCALDLMR (UniProt P47756)", "probe-labelled cysteine peptide fold change": -0.139}, {"target": "CASP1_P29466_362_LIEHMQEYACSCDVEEIFR (UniProt P29466)", "probe-labelled cysteine peptide fold change": 0.155}, {"target": "CCDC58_Q4VC31_74_NCIAQTSAVVK (UniProt Q4VC31)", "probe-labelled cysteine peptide fold change": -0.312}, {"target": "CASP7_P55210_246_GSWFVQALCSILEEHGK (UniProt P55210)", "probe-labelled cysteine peptide fold change": 0.137}, {"target": "CCAR1_Q8IX12_376_FSLDCPSCDMMELR (UniProt Q8IX12)", "probe-labelled cysteine peptide fold change": 0.116}, {"target": "CCDC51_Q96ER9_331_TCSQMAGVVQLVK (UniProt Q96ER9)", "probe-labelled cysteine peptide fold change": 0.0365}, {"target": "CARNMT1_Q8N4J0_115_CIDHNQEILLTIVNDCIHMFENK (UniProt Q8N4J0)", "probe-labelled cysteine peptide fold change": -0.0826}, {"target": "CCAR2_Q8N163_644_PLSSGGEEEEKPRGEASEDLCEMALDPELLLLRDDGEEEFAGAK (UniProt Q8N163)", "probe-labelled cysteine peptide fold change": 0.363}, {"target": "CAPN7_Q9Y6W3_120_ENVEDAIELYTEAVDLCLK (UniProt Q9Y6W3)", "probe-labelled cysteine peptide fold change": 0.131}, {"target": "CASP8AP2_Q9UKL3_270_DLSTGCGDGEPR (UniProt Q9UKL3)", "probe-labelled cysteine peptide fold change": -0.38}, {"target": "CCDC115_Q96NT0_68_SVGPLQYASHMEPQVCLHASEAQEGLQK (UniProt Q96NT0)", "probe-labelled cysteine peptide fold change": -0.0291}, {"target": "CARS_P49589_525_ALVSQCNLYMAAR (UniProt P49589)", "probe-labelled cysteine peptide fold change": -0.00667}]}]}
